From PubChem BioAssay AID2685 (National Center for Advancing Translational Sciences (NCATS), 2010)
Some of the results follow. Shown are side measurements of this screen, not its main read-out; they come without a call. The list favours compounds with an active or inconclusive main result. Potencies come from curve fits of mixed quality, noted in brackets.

Test: qHTS Assay for Lipid Storage Modulators in Drosophila S3 Cells;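 as to cell number change: cells counted by Cell Tracker Red CMTPX staining in the red channel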
Details: BODIPY lipid droplet fluorescence, 18-24 h; for cell number change: measured here: cell count max response, cells fed with added oleic acid
Outline: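 Drosophila S3 cells loaded with oleic acid (400 uM, as added) and compounds at several concentrations; lipid droplets imaged by 488-nm laser-scanning cytometry, 500–530 nm intensity and object ratio to cell channel. Percent activity normalized to 20 uM Triacsin C.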

[1] = measured here: lipid fluorescence (Fed channel) AC50, cells fed with added oleic acid
[2] = measured here: cell number channel AC50, cells fed with added oleic acid

| Compound | cell number change [%] | AC50 [1] | AC50 [2] |
| --- | --- | --- | --- |
| COc1ccc(N(CC(=O)Nc2ccccc2C(=O)O)S(=O)(=O)c2ccc(C)c([N+](=O)[O-])c2)cc1 | 77.1 | – | – |
| O=C(NNC(=O)c1ccc(F)c(S(=O)(=O)N2CCOCC2)c1)c1ccc(Br)cc1 | 14.4 | 6510 nM [rising, full curve] | – |
| CC(C)(C)c1ccc(-c2nc3c(C#N)c(-c4ccc5c(c4)OCO5)ccn3n2)cc1 | – | – | 259 nM [rising, full curve] |
| CC1CC(C)CN(CCCNS(=O)(=O)c2cc(Br)cc3c2N(C(=O)C2CC2)CC3)C1 (stereo not drawn) | 16.2 | 580 nM [falling, single point] | – |
| COc1ccc(/C=C/C(=O)N2c3ccccc3Sc3ccc(C(F)(F)F)cc32)cc1 | 5.63 | 5800 nM [rising, full curve, poor fit] | – |
| COc1cccc(CN2CCNC(=O)C2CC(=O)NCCN2CCOCC2)c1OC (stereo not drawn) | 10.9 | 23100 nM [rising, partial curve, poor fit] | – |
| O=C(CCl)NN=C(c1ccccc1)c1ccccc1 | – | 29100 nM [rising, partial curve, poor fit] | 116 nM [rising, single point] |
| CC(=O)Nc1cc2c(cc1NC(=O)Cn1nc(-c3ccccc3)ccc1=O)OCCO2 | 46.2 | – | – |
| O=C(Nc1ccc(Cl)c(Cl)c1)Nc1nnc(CC2=CCCCC2)s1 | -29.5 | 14600 nM [falling, single point] | – |
| O=C(Cn1c(=O)c2c3c(sc2n(Cc2ccccc2)c1=O)CCCC3)NCCO | -15.9 | 14600 nM [falling, partial curve, poor fit] | – |
| Cc1ccc(O)c(NC(=O)c2cc(-c3ccco3)on2)c1 | 5 | 1300 nM [rising, partial curve] | – |
| COC(=O)C(C)n1cnc2c(nnn2-c2ccc(C)cc2)c1=O (stereo not drawn) | 2.02 | 58 nM [rising, full curve, poor fit] | – |
| CCN(CC)CCCNC(=O)c1sc2nc(-c3ccc(F)cc3)cn2c1C | -0.514 | – | – |
| CNc1ccc(Cl)cc1C(N)=O | 14 | 6510 nM [falling, single point] | – |
| CN(Cc1ccccc1)C(=O)c1cccc(C(=O)N(C)Cc2ccccc2)c1 | -14 | 6510 nM [falling, full curve, poor fit] | – |
| COc1ccc(NC(=S)N2CCC(NC(=O)c3ccccc3C)CC2)cc1 | 16.7 | – | 2590 nM [rising, partial curve, poor fit] |
| Cc1oc2cc3oc(=O)c(CCC(=O)NCCCN4CCCC4=O)c(C)c3cc2c1C | 4.65 | 580 nM [rising, single point] | – |
| Cc1ccccc1NC(=O)c1cc[n+]([O-])cc1 | 1.21 | – | – |
| COc1cccc(CC(=O)NN2C(=O)NC3(CCCCC3)C2=O)c1 | -13.9 | 130 nM [falling, full curve, poor fit] | – |
| O=C(N1CCCCC1)C1(S(=O)(=O)c2ccccc2)CC=CC1 | 1.5 | 6510 nM [rising, single point] | – |

| Compound | cell number change [%] | AC50 [1] | AC50 [2] |
| --- | --- | --- | --- |
| COc1ccc(CCNCC(=O)Nc2ccc(C)c(Br)c2)cc1OC | -5.74 | 29100 nM [rising, single point] | – |
| CCOc1ccccc1NC(=O)CSc1nnc(Cc2ccc(OC)cc2)c(=O)n1N | 100 | – | 18400 nM [rising, single point] |
| Cc1ccc(C(=O)N(CC(=O)Nc2sc(C)c(C)c2C(N)=O)C2CCCC2)cc1 | -4.58 | 580 nM [falling, full curve] | – |
| Cc1cc(C)n(CCNC(=O)CCc2nnc(CCc3ccccc3)o2)n1 | 11.8 | 580 nM [falling, single point] | – |
| Cc1cc(Cl)ccc1NC(=S)NCc1ccccc1Cl | 9.53 | 20600 nM [falling, single point] | – |
| CCOC(=O)CSc1nc(-c2ccccc2)ns1 | -43.9 | 2310 nM [falling, partial curve, poor fit] | 2310 nM [falling, full curve, poor fit] |
| COc1ccc(CNC(=O)CCN2C(=O)[C@@H]3Cc4ccccc4CN3C2=O)cc1 | 35.2 | 14600 nM [rising, partial curve] | 3260 nM [rising, partial curve] |
| CC(C)n1cnc2c(N(C)c3cccc(Cl)c3)nc(N(CCO)CCO)nc21 | 14.2 | 1840 nM [rising, full curve] | – |
| CCOc1ccc(S(=O)(=O)Nc2cccc(C(=O)NCC(c3ccc(OC)cc3)N3CCOCC3)c2)cc1 (stereo not drawn) | 3.18 | – | – |
| CCOC(=O)C1(CC2CCCCO2)CCN(S(=O)(=O)c2ccc(OC)cc2)CC1 (stereo not drawn) | -26.3 | 6510 nM [falling, single point] | – |
| COC(=O)c1ccccc1NC(=O)CSc1ccccc1 | -18.8 | – | – |
| COc1ccccc1Nc1nnc(SCC(=O)Nc2nc(-c3ccc(F)cc3)cs2)s1 | -60.1 | 1300 nM [falling, full curve] | 1840 nM [falling, full curve] |
| COc1cc(/C=N/N2CCOCC2)ccc1OCc1ccccc1 | 17.8 | 29100 nM [rising, single point] | – |
| COc1ccccc1C(CNC(=O)C1CCN(C(=O)Nc2ccccc2)CC1)N1CCCC1 (stereo not drawn) | 6.72 | 23100 nM [rising, partial curve] | – |
| CN(C(=S)NC(=O)c1ccc(F)cc1)C1CCCCC1 | 4.69 | 58 nM [rising, partial curve, poor fit] | – |
| Cc1cccc(OCC(=O)NCC(=O)N/N=C/c2cc(Br)ccc2OCc2ccccc2)c1 | -2.35 | 1460 nM [rising, partial curve] | – |
| Cc1ccccc1Nc1nc(N2CCOCC2)nc(N2CCOCC2)n1 | – | – | 4.61 nM [rising, full curve, poor fit] |
| COc1ccc([C@]23Cc4cc(C#N)ccc4C(O2)c2c(cc(-c4ccccc4)oc2=O)O3)cc1 | -0.872 | 1190 nM [rising, single point] | – |
| CCC(=O)Nc1cccc(NC(=O)CSc2nnc(C3CC3)n2C)c1 | 0.26 | 29100 nM [rising, single point] | – |

A few values from the entries so far.
cell number change [%] with CCOC(=O)CSc1nc(-c2ccccc2)ns1 reads -43.9
cell number change [%] with Cc1cccc(OCC(=O)NCC(=O)N/N=C/c2cc(Br)ccc2OCc2ccccc2)c1 reads -2.35
cell number change [%] with Cc1ccc(C(=O)N(CC(=O)Nc2sc(C)c(C)c2C(N)=O)C2CCCC2)cc1 reads -4.58
